Among all 300,000 compounds or so, about 3,700 (1.2%) were called active. The shares of active, inactive and inconclusive entries below differ from those in the screen. The call rests on the fitted dose curve; tested in HEK293 cells. Where the call is inconclusive, the potency comes from a doubtful curve fit.
Test: qHTS for Inhibitors of binding or entry into cells for Lassa Virus; further: nearly all actives have a fitted effect of over 50% in size
Conditions: Lassa virus pseudotype entry inhibition, cell reporter; activity change, negative = inhibition: at 37.9 µM (top of the series) unless noted
On the % scale 0 is the no-effect control and ±100 the full control effect; potency means the concentration at half of the fitted maximal effect.

| SMILES | Potency | activity change, negative = inhibition |
| --- | --- | --- |
| Cc1nc2nc(NC(=O)c3ccccc3F)[nH]n2c(=O)c1Cl | inconclusive: 6.31 µM [inhibitor, partial curve, poor fit] | – |
| O=S(=O)(c1ccc2nc(SCc3ccc(Cl)cc3)[nH]c2c1)N1CCOCC1 | inconclusive: 35.5 µM [inhibitor, single point] | – |
| Cc1nc2ccc(NC(=O)Cc3cccs3)cc2s1 | – | inactive: -14.2% |
| COc1ccc(OC)c(C(c2nnnn2C2CCCC2)N2CCc3ccccc3C2)c1 (stereo unspecified) | inconclusive: 31.6 µM [inhibitor, single point] | – |
| CN(Cc1ccco1)C(=O)c1ccc2c(c1)N(Cc1ccccc1F)C(=O)c1ccccc1S2 | inconclusive: 20 µM [inhibitor, partial curve, poor fit] | – |
| O=c1cc(O)c(-c2ccc(Cl)c(Cl)c2)c(Cl)[nH]1 | inconclusive: 0.562 µM [inhibitor, full curve, poor fit] | – |
| CC(=O)N1c2ccc(S(=O)(=O)NCC3CCC(C(=O)Nc4ccc(C)cc4)CC3)cc2CC1C (stereo unspecified) | – | inactive: 0.538% [at 46.1 µM] |
| Cc1cc(C(=O)CSc2nc(N)cc(=O)[nH]2)c(C)n1-c1ccc(OC(F)F)cc1 | inconclusive: 1.12 µM [inhibitor, partial curve, poor fit] | – |
| Cc1ccc(NC(=O)ON=C2CCCC2)cc1 | active: 1.41 µM | – |
| COc1cc(OC)c2c(C)c(Cl)c(=O)oc2c1 | inconclusive: 1.26 µM [activator, partial curve, poor fit] | – |
| Nc1c(C(=O)Nc2nc3ccccc3s2)sc2nc(-c3cccs3)ccc12 | active: 6.51 µM | – |
| O=C(NCc1ccccc1)C1CCN(S(=O)(=O)N2CCOCC2)CC1 | inconclusive: 3.66 µM [activator, single point] | – |
| Cc1cc(/C=C2/SC(=S)N(c3cccc(C(F)(F)F)c3)C2=O)c(C)n1-c1cccnc1 | inconclusive: 7.3 µM [inhibitor, partial curve, poor fit] | – |
| Cc1ccc(-n2c(=O)c3c4c(sc3n(CC(=O)c3ccc(Cl)cc3)c2=O)CCC4)cc1C | – | inactive: 0.975% [at 46.1 µM] |
| O=c1cc(NS(=O)(=O)c2ccccc2)nc(SCc2ccccc2Cl)[nH]1 | inconclusive: 35.5 µM [inhibitor, single point] | – |
| CN1CCN(C(=O)C(=O)c2cn(CC(=O)N3CCCC3)c3ccccc23)CC1 | inconclusive: 5.62 µM [activator, single point] | – |
| COc1ccc(-c2nc(-c3ccc(O)cc3O)cs2)cc1OC | inconclusive: 35.5 µM [inhibitor, single point] | – |
| COCCCNC(=O)c1c[nH]c2ccc(S(=O)(=O)N3CCc4ccccc43)cc2c1=O | inconclusive: 5.01 µM [inhibitor, full curve, poor fit] | – |
| COCCn1c(N2CCCC2)nc2c1c(=O)[nH]c(=O)n2C | – | inactive: -37.4% |
| Cc1ccc2[nH]c(-c3cccc(N)c3)cc2c1 | – | inactive: -0.878% |
| CCCCC[C@H](O)/C=C/[C@H]1C=CC(=O)[C@@H]1C/C=C\CCCC(=O)O | inconclusive: 2.59 µM [inhibitor, partial curve, poor fit] | – |
| COc1ccccc1-c1nnc(SCC(=O)Nc2ccccc2F)o1 | – | inactive: -0.208% [at 46.1 µM] |

Reformatted: 3 of the compounds above.
SMILES | Potency | activity change, negative = inhibition
O=c1cc(O)c(-c2ccc(Cl)c(Cl)c2)c(Cl)[nH]1 | inconclusive: 0.562 µM [inhibitor, full curve, poor fit] | –
COCCCNC(=O)c1c[nH]c2ccc(S(=O)(=O)N3CCc4ccccc43)cc2c1=O | inconclusive: 5.01 µM [inhibitor, full curve, poor fit] | –
COc1ccccc1-c1nnc(SCC(=O)Nc2ccccc2F)o1 | – | inactive: -0.208% [at 46.1 µM]

(cont.)

| SMILES | Potency | activity change, negative = inhibition |
| --- | --- | --- |
| Cc1cc(C(C)(C)C)cc(C)c1COC(=O)C1CCC(=O)N1 (stereo unspecified) | inconclusive: 12.6 µM [inhibitor, partial curve, poor fit] | – |
| N#CC1c2ccccc2C=CN1C(=O)N(c1ccccc1)c1ccccc1 (stereo unspecified) | inconclusive: 22.4 µM [inhibitor, single point] | – |
| CC(C)C(NC(=O)c1ccc(Cl)cc1)C(=O)O (stereo unspecified) | inconclusive: 16.4 µM [activator, partial curve, poor fit] | – |
| O=C(Nc1ccc2ccccc2c1)[C@@H]1C[C@H]1[C@@H](NP(=O)(c1ccccc1)c1ccccc1)c1ccccc1 | inconclusive: 6.51 µM [inhibitor, partial curve] | – |
| CC(=O)N1CCc2c(sc3c2c(=O)n(-c2ccccc2)c(=O)n3CC(=O)Nc2ccccc2)C1 | inconclusive: 3.16 µM [inhibitor, single point] | – |
| COc1ccc(S(=O)(=O)N2CCCCCC2)cc1NC(=O)Cc1ccc(OC)c(OC)c1 | inconclusive: 35.5 µM [inhibitor, single point] | – |
| O=C(CSc1ncnc2[nH]ncc12)Nc1nc(-c2ccc(F)c(F)c2)cs1 | inconclusive: 20.6 µM [inhibitor, single point] | – |
| COc1cc(CNC(=O)c2ccc3c(c2)N(C)C(=O)C2CCCCN32)cc(OC)c1OC (stereo unspecified) | inconclusive: 7.08 µM [activator, partial curve, poor fit] | – |
| COc1ccccc1C(=O)Nc1ccc(Oc2nnc(-c3ccc(C)cc3)c3ccccc23)cc1 | – | inactive: -5.59% |
| CON(C)S(=O)(=O)c1cccc(C(=O)NC2CCSc3ccccc32)c1 (stereo unspecified) | inconclusive: 10 µM [inhibitor, partial curve, poor fit] | – |
| COc1ccc(N2CCN(c3c(S(=O)(=O)c4ccccc4)cnc4ccc(OC)cc34)CC2)cc1 | inconclusive: 2 µM [inhibitor, full curve] | – |
| O=C(CSc1nnc(Cn2nnc3ccccc32)o1)N(Cc1ccc(F)cc1)c1ccccc1 | inconclusive: 9.2 µM [inhibitor, partial curve, poor fit] | – |
| CCOc1ccc(C(=O)NCC(=O)NCCOc2ccc(C)cc2)cc1 | inconclusive: 3.98 µM [inhibitor, partial curve, poor fit] | – |
| C/C(=N\NC(=O)c1ccc(O)cc1O)c1cccnc1 | – | inactive: 1.24% [at 46.1 µM] |
| O=C(Nc1ccc(S(=O)(=O)NC2CCCCC2)cc1)c1ccc(Br)o1 | inconclusive: 7.3 µM [inhibitor, partial curve] | – |
| Fc1ccccc1CN1CCCCCCC1 | inconclusive: 10.3 µM [activator, partial curve] | – |
| Cc1cccc(NC(=O)c2ccc3c(c2)OCCO3)c1 | inconclusive: 7.94 µM [inhibitor, partial curve, poor fit] | – |
| CCc1ccc(NC(=O)CN2CCCN(Cc3cccc(Cl)c3)S2(=O)=O)cc1 | inconclusive: 1.58 µM [inhibitor, full curve, poor fit] | – |
| O=C(Cc1ccccc1)N/N=C/C=C/c1cccc([N+](=O)[O-])c1 | – | inactive: 13.1% |
| CNc1nc2[nH]c(=O)c3c(c2s1)OC(N)=C(C#N)C3c1ccccc1 (stereo unspecified) | inconclusive: 4.47 µM [activator, full curve, poor fit] | – |
| CCOC(=O)C1(Cc2ccc(OC)cc2)CCN(C(=O)c2cc3ccccc3[nH]2)CC1 | – | inactive: -15.9% [at 46.1 µM] |
| Cc1cc(C(C)(C)C)ccc1OCCOCCN1CCCC1 | inconclusive: 29.1 µM [inhibitor, single point] | – |

| SMILES | Potency | activity change, negative = inhibition |
| --- | --- | --- |
| CC1CCCN(S(=O)(=O)c2ccc(C(=O)Nc3nnc(-c4ccccc4Cl)o3)cc2)C1 (stereo unspecified) | inconclusive: 0.251 µM [inhibitor, full curve, poor fit] | – |
| OC1(c2cccs2)CN(c2ccc(Cl)cc2)C2=[N+]1CCCC2 (stereo unspecified) | inconclusive: 3.98 µM [inhibitor, partial curve] | – |
| O=C(NC1CCCCC1)C(c1ccc2ncccc2c1)N(Cc1cccs1)C(=O)c1cccs1 (stereo unspecified) | inconclusive: 0.461 µM [inhibitor, full curve, poor fit] | – |
| O=C(OC1CCc2ccccc2C1=O)c1ccccc1O (stereo unspecified) | – | inactive: 16.8% |
| Cc1ccc(CNC(=O)COC(=O)CCC(=O)c2cccs2)cc1 | – | inactive: 6.13% |
| COc1cccc(NC(=O)CNC(=O)c2ccc(F)cc2)c1 | inconclusive: 35.5 µM [activator, single point] | – |
| CCc1ccccc1N(C)C(=O)c1cn(CC(C)C)c(=O)c2cc(OC)c(OC)cc12 | inconclusive: 15.8 µM [inhibitor, single point] | – |
| Cc1ccc(Oc2ncccc2NC(=O)CC2(CC(=O)O)CCCC2)c2c1CCC2 | – | inactive: 16.7% |
| Cc1nn(CC(=O)NCc2ccco2)c(=O)c2cc3ccccc3n12 | – | inactive: -6.02% [at 46.1 µM] |
| O=C(N/N=C\c1ccc(COc2ccc([N+](=O)[O-])cc2)o1)c1ccc(Cl)cc1 | inconclusive: 14.6 µM [inhibitor, partial curve] | – |
| Cc1ccc(NC(=O)COc2ccccc2)cc1Cl | – | inactive: 17.6% [at 46.1 µM] |
| Cc1cccc(NC(=O)Nc2nnc(N(C)C3CCCCC3)s2)c1C | inconclusive: 25.1 µM [inhibitor, single point] | – |
| NC(=O)NC(=O)CSc1nc(-c2ccccc2)c(-c2ccccc2)n1CC1CCCO1 (stereo unspecified) | inconclusive: 12.6 µM [inhibitor, partial curve, poor fit] | – |
| O=C(NCCCN=C1NS(=O)(=O)c2ccccc21)c1ccccc1Cl | inconclusive: 35.5 µM [inhibitor, single point] | – |
| O=[N+]([O-])c1ccc(N=Cc2sc3ccccc3c2O)cc1 | inconclusive: 3.98 µM [activator, single point] | – |
| [O-][N+](=Cc1ccccc1)c1ccc(Cl)cc1 | inconclusive: 2.24 µM [activator, single point] | – |
| CCOc1ccc(N(CC(=O)NCc2ccc(OC)cc2)C(=O)CCC(=O)Nc2nccs2)cc1 | inconclusive: 6.31 µM [inhibitor, single point] | – |
| CCCC(=O)N(CCc1ccc(OC)cc1)Cc1nc2ccccc2c(=O)[nH]1 | inconclusive: 6.51 µM [inhibitor, full curve, poor fit] | – |
| Cc1ccccc1-c1nc(-c2ccc(NC(=O)c3ccc(Br)o3)cc2)no1 | – | inactive: -18.7% |
| Cn1c2ccccc2c2cc(/C=C(\NC(=O)c3ccccc3)C(=O)O)ccc21 | inconclusive: 11.2 µM [inhibitor, partial curve] | – |
| OC(COc1ccccc1)CN1CCCCC1 (stereo unspecified) | – | inactive: -8.99% |
| Cc1ccc(/C=N/NC(=O)c2c[nH]c3ccccc23)s1 | – | inactive: -18.3% |
